Test results from US20250161271A1, “PHARMACEUTICAL COMPOSITION FOR TREATING CANCER, COMPRISING ANTICANCER AGENT AND NOVEL COMPOUND HAVING INHIBITORY ACTIVITY WITH RESPECT TO PROSTAGLANDIN E2 RECEPTORS” (KANAPH THERAPEUTICS INC., priority 2022, published 2025).
Some of these results come from one statement about several compounds together. At least one compound was matched to its structure with a doubt left.

The chains behind the UniProt entries cited, without tags or fusion partners. Where a name states a change or a piece, a line headed by the entry shows the natural chain unless it says otherwise.
UniProt P43116: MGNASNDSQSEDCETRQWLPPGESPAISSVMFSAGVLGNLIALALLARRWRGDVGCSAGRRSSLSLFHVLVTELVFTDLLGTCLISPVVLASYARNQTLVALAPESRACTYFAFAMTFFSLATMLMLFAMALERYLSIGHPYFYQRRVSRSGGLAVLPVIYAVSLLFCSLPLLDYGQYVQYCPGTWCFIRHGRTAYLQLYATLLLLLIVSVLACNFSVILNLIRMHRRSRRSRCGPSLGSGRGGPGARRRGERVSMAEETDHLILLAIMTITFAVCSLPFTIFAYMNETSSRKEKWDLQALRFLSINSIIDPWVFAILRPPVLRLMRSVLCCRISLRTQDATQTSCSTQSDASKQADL
UniProt P35408: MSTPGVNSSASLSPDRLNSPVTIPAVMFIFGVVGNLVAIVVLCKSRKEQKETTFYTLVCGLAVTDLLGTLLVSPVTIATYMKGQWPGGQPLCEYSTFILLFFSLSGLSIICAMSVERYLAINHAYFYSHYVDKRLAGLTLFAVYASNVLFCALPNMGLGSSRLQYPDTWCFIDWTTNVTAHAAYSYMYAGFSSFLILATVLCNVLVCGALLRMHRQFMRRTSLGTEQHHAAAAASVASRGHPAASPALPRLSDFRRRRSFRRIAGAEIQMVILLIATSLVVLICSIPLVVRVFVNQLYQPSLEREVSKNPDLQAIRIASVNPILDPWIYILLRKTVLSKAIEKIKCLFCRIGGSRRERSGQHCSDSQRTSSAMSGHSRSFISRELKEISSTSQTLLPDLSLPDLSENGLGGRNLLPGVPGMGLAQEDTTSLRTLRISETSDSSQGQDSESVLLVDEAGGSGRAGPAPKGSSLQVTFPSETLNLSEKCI

Legend:
[1] = target: T1, hEP2 (Homo sapiens, UniProt P43116); assay: hEP2 cAMP assay; type: cell-based; conditions: summary in words of Tables 22 to 25
T1 construct: expressed in transfected cells; host or cells: HEK293

[2] = target: T2, hEP4 (Homo sapiens, UniProt P35408); assay: hEP4 cAMP assay; type: cell-based; conditions: summary in words of Tables 22 to 25
T2 construct: expressed in transfected cells; host or cells: HEK293

| inhibitory activity on EP2 [1] | inhibitory activity on EP4 [2] | SMILES |
| --- | --- | --- |
| excellent inhibitory activity | excellent inhibitory activity | Cc1sc(C)c(C(=O)NC2CC3(C2)CC(C(=O)O)C3)c1Cc1ccc(-c2cc(F)cc(CN)c2)cc1 (stereo not drawn) [Example 64, 6-(4-((3′-(aminomethyl)-5′-fluoro-[1,1′-biphenyl]-4-yl)methyl)-2,5-dimethylthiophene-3-carboxamido)spiro[3.3]heptane-2-carboxylic acid] |
| excellent inhibitory activity | excellent inhibitory activity | COc1cc(-c2ccc(Cc3c(C)sc(C)c3C(=O)NC3CC4(C3)CC(C(=O)O)C4)cc2)cc(C2(O)COC2)c1 (stereo not drawn) [Example 61, 6-(4-((3′-(3-hydroxyoxetane-3-yl)-5′-methoxy-[1,1′-biphenyl]-4-yl)methyl)-2,5-dimethylthiophene-3-carboxamido)spiro[3.3]heptane-2-carboxylic acid] |
| excellent inhibitory activity | excellent inhibitory activity | COc1cncc(-c2ccc(Cn3ccc4scc(C(=O)NC5CC6(C5)CC(C(=O)O)C6)c43)cc2)c1 (stereo not drawn) [Example 101, 6-(4-(4-(5-methoxypyridin-3-yl)benzyl)-4H-thieno[3,2-b]pyrrole-3-carboxamido)spiro[3.3]heptane-2-carboxylic acid] |
| excellent inhibitory activity | excellent inhibitory activity | O=C(NC1CC2(C1)CC(C(=O)O)C2)c1c(Br)sc(Br)c1Cc1ccc(-c2ccccc2)cc1 (stereo not drawn) [Example 16, 6-(4-([1,1′-biphenyl]-4-ylmethyl)-2,5-dibromothiophene-3-carboxamido)spiro[3.3]heptane-2-carboxylic acid] |
| excellent inhibitory activity | excellent inhibitory activity | O=C(NC1CC2(C1)CC(C(=O)O)C2)c1csc2ccn(Cc3ccc(-c4cccc(F)c4)cc3)c12 (stereo not drawn) [Example 92, 6-(4-((3′-fluoro-[1,1′-biphenyl]-4-yl)methyl)-4H-thieno[3,2-b]pyrrole-3-carboxamido)spiro[3.3]heptane-2-carboxylic acid] |
| excellent inhibitory activity | excellent inhibitory activity | Cn1cc(-c2ccc(Cn3ccc4scc(C(=O)NC5CC6(C5)CC(C(=O)O)C6)c43)cc2)cn1 (stereo not drawn) [Example 102, 6-(4-(4-(1-methyl-1H-pyrazol-4-yl)benzyl)-4H-thieno[3,2-b]pyrrole-3-carboxamido)spiro[3.3]heptane-2-carboxylic acid] |
| excellent inhibitory activity | excellent inhibitory activity | O=C(NC1CC2(C1)CC(C(=O)O)C2)c1csc2ccn(CCc3ccc(-c4ccccc4)cc3)c12 (stereo not drawn) [Example 91, 6-(4-(2-([1,1′-biphenyl]-4-yl)ethyl)-4H-thieno[3,2-b]pyrrole-3-carboxamido)spiro[3.3]heptane-2-carboxylic acid] |
| excellent inhibitory activity | excellent inhibitory activity | O=C(NC1CC2(C1)CC(C(=O)O)C2)c1csc2ccn(Cc3ccc(-c4ccncc4)cc3)c12 (stereo not drawn) [Example 106, 6-(4-(4-(pyridin-4-yl)benzyl)-4H-thieno[3,2-b]pyrrole-3-carboxamido)spiro[3.3]heptane-2-carboxylic acid] |
| excellent inhibitory activity | excellent inhibitory activity | O=C(NC1CC2(C1)CC(C(=O)O)C2)c1csc2ccn(Cc3ccc(-c4ccccc4)cc3)c12 (stereo not drawn) [Example 79, 6-(4-([1,1′-biphenyl]-4-ylmethyl)-4H-thieno[3,2-b]pyrrole-3-carboxamido)spiro[3.3]heptane-2-carboxylic acid] |
| excellent inhibitory activity | excellent inhibitory activity | O=C(NC1CC2(C1)CC(C(=O)O)C2)c1c(Cl)sc(Cl)c1Cc1ccc(-c2ccccc2)cc1 (stereo not drawn) [Example 17, 6-(4-([1,1′-biphenyl]-4-ylmethyl)-2,5-dichlorothiophene-3-carboxamido)spiro[3.3]heptane-2-carboxylic acid] |
| excellent inhibitory activity | excellent inhibitory activity | Cc1sc(C)c(C(=O)NC2CC3(C2)CC(C(=O)O)C3)c1Cc1ccc(-c2ccc(S(C)(=O)=O)cc2)cc1 (stereo not drawn) [Example 35, 6-(2,5-dimethyl-4-((4′-(methylsulfonyl)-[1,1′-biphenyl]-4-yl)methyl)thiophene-3-carboxamido)spiro[3.3]heptane-2-carboxylic acid] |
| excellent inhibitory activity | excellent inhibitory activity | COc1ccc(F)c(-c2ccc(Cc3c(C)sc(C)c3C(=O)NC3CC4(C3)CC(C(=O)O)C4)cc2)c1 (stereo not drawn) [Example 47, 6-(4-((2′-fluoro-5′-methoxy-[1,1′-biphenyl]-4-yl)methyl)-2,5-dimethylthiophene-3-carboxamido)spiro[3.3]heptane-2-carboxylic acid] |
| excellent inhibitory activity | excellent inhibitory activity | Cc1sc(C)c(C(=O)NC2CC3(C2)CC(C(=O)O)C3)c1Cc1cccc(-c2ccccc2)c1 (stereo not drawn) [Example 3, 6-(4-([1,1′-biphenyl]-3-ylmethyl)-2,5-dimethylthiophene-3-carboxamido)spiro [3.3]heptane-2-carboxylic acid] |
| excellent inhibitory activity | excellent inhibitory activity | Cc1sc(C)c(C(=O)NC2CC3(C2)CC(C(=O)O)C3)c1Cc1ccc(-c2cc(F)cc(C#N)c2)cc1 (stereo not drawn) [Example 70, 6-(4-((3′-cyano-5′-fluoro-[1,1′-biphenyl]-4-yl)methyl)-2,5-dimethylthiophene-3-carboxamido)spiro[3.3]heptane-2-carboxylic acid] |
| excellent inhibitory activity | excellent inhibitory activity | Cc1sc(C)c(C(=O)NC2CC3(C2)CC(C(=O)O)C3)c1Cc1ccc(-c2ccc(F)cc2)cc1 (stereo not drawn) [Example 69, 6-(4-((4′-fluoro-[1,1′-biphenyl]-4-yl)methyl)-2,5-dimethylthiophene-3-carboxamido)spiro[3.3]heptane-2-carboxylic acid] |
| excellent inhibitory activity | excellent inhibitory activity | COc1cc(F)cc(-c2ccc(Cn3ccc4scc(C(=O)NC5CC6(C5)CC(C(=O)O)C6)c43)cn2)c1 (stereo not drawn) [Example 110, 6-(4-((6-(3-fluoro-5-methoxyphenyl)pyridin-3-yl)methyl)-4H-thieno[3,2-b]pyrrole-3-carboxamido)spiro[3.3]heptane-2-carboxylic acid] |
| excellent inhibitory activity | excellent inhibitory activity | Cc1sc(C)c(C(=O)c2ccc(-c3ccccc3)cc2)c1C(=O)NC1CC2(C1)CC(C(=O)O)C2 (stereo not drawn) [Example 10, 6-(4-([1,1′-biphenyl]-4-carbonyl)-2,5-dimethylthiophene-3-carboxamido)spiro[3.3]heptane-2-carboxylic acid] |
| excellent inhibitory activity | excellent inhibitory activity | Cc1sc(C)c(C(=O)NC2CC3(C2)CC(C(=O)O)C3)c1Cc1ccc(-c2ccc(F)c(C(=O)O)c2)cc1 (stereo not drawn) [Example 37, 6-(4-((3′-carboxy-4′-fluoro-[1,1′-biphenyl]-4-yl)methyl)-2,5-dimethylthiophene-3-carboxamido)spiro[3.3]heptane-2-carboxylic acid] |
| excellent inhibitory activity | excellent inhibitory activity | Cc1sc(C)c(C(=O)NC2CC3(C2)CC(C(=O)O)C3)c1Cc1ccc(-c2cccc(C(F)(F)F)c2)cc1 (stereo not drawn) [Example 44, 6-(2,5-dimethyl-4-((3′-(trifluoromethyl)-[1,1′-biphenyl]-4-yl)methyl)thiophene-3-carboxamido)spiro[3.3]heptane-2-carboxylic acid] |
| excellent inhibitory activity | excellent inhibitory activity | COc1ccc(F)cc1-c1ccc(Cc2c(C)sc(C)c2C(=O)NC2CC3(C2)CC(C(=O)O)C3)cc1 (stereo not drawn) [Example 48, 6-(4-((5′-fluoro-2′-methoxy-[1,1′-biphenyl]-4-yl)methyl)-2,5-dimethylthiophene-3-carboxamido)spiro[3.3]heptane-2-carboxylic acid] |
| excellent inhibitory activity | excellent inhibitory activity | O=C(NC1CC2(C1)CC(C(=O)O)C2)c1csc2ccn(Cc3ccc(-c4cncc(F)c4)cc3)c12 (stereo not drawn) [Example 100, 6-(4-(4-(5-fluoropyridin-3-yl)benzyl)-4H-thieno[3,2-b]pyrrole-3-carboxamido)spiro[3.3]heptane-2-carboxylic acid] |
| excellent inhibitory activity | excellent inhibitory activity | O=C(NC1CC2(C1)CC(C(=O)O)C2)c1csc2ccn(Cc3ccc4c(ccn4Cc4ccccc4)c3)c12 (stereo not drawn) [Example 103, 6-(4-((1-benzyl-1H-indol-5-yl)methyl)-4H-thieno[3,2-b]pyrrole-3-carboxamido)spiro[3.3]heptane-2-carboxylic acid] |
| excellent inhibitory activity | excellent inhibitory activity | Cc1sc(C)c(C(=O)NC2CC3(C2)CC(C(=O)O)C3)c1Cc1ccc(C2=CCCCC2)cc1 (stereo not drawn) [Example 32, 6-(2,5-dimethyl-4-((2′,3′,4′,5′-tetrahydro-[1,1′-biphenyl]-4-yl)methyl)thiophene-3-carboxamido)spiro[3.3]heptane-2-carboxylic acid] |
| excellent inhibitory activity | excellent inhibitory activity | O=C(NC1CC2(C1)CC(C(=O)O)C2)c1sccc1Cc1ccc(-c2ccccc2)cc1 (stereo not drawn) [Example 18, 6-(3-([1,1′-biphenyl]-4-ylmethyl)thiophene-2-carboxamido)spiro[3.3]heptane-2-carboxylic acid] |
